Where a name gives a salt, the structure may show the parent alone. Read-outs that look alike come from different tables or passages of the source.
Tests used:
in vivo = conditions: hairless, rat, iv
[1] = IV bolus, hairless rats, n = 3
hairless rat skin = conditions: patch 24 hours, calculated from IV clearance

Structure (SMILES): COc1cc2c(cc1OC)C(=O)C(CC1CCN(Cc3ccccc3)CC1)C2 (stereo not drawn) [Donepezil HCl, donepezil HCl]
- clearance (in vivo): 38.1 mL/min/kg
- Elimination rate const. (λz) [1]: 0.19 h⁻¹
- Dose delivered ± SD (hairless rat skin; group 2, passive (0 mA)): 0 mg/day
- Dose delivered ± SD (hairless rat skin; group 3, 0.13 mA): 2.55 ± 0.75 mg/day
- Dose delivered ± SD (hairless rat skin; group 4, 0.26 mA): 5.83 ± 0.37 mg/day
- Dose delivered ± SD (hairless rat skin; group 5, 0.39 mA): 8.75 ± 2.83 mg/day

From patent publication US8295923B2 (priority 2008, dated 2012)
